{"source": "patent US20250361284A1", "about": "“TRANSPOSASE FUSION PROTEINS FOR USE IN CELL AND GENE THERAPY” (JULIUS-MAXIMILIANS-UNIVERSITÄT WÜRZBURG, priority 2022, published 2025)", "key": {"Lenti-X 293T cells": {"test_system": "Lenti-X 293T cells", "test": "Immunoblot of SB fusion-transposase protein expression and regulation by small molecules in Lenti-X 293T cells", "assay_type": "cell-based, human", "conditions": "24 hours"}, "HeLa cells": {"test_system": "HeLa cells", "test": "Immunoblot of dd-SB100X fusion-transposase expression in HeLa cells", "assay_type": "cell-based, human"}, "[1]": {"test_system": "dd-SB100X fusion transposase", "test": "Immunoblot: time and dose-dependent regulation of dd-SB100X expression by TMP in human T cells", "assay_type": "cell-based"}}, "note": "“Also recorded” adds a separate entry of the source.", "data": [{"molecule": "dd-SB100X: ecDHFR destabilizing domain fused via linker to N-terminus of SB100X transposase; SEQ ID NO: 2 (protein, misc_feature 1..1539 ecDHFR-SB100X) MISLIAALAVDYVIGMENAMPWNLPADLAWFKRNTLNKPVIMGRHTWESIGRPLPGRKNIILSSQPSTDDRVTWVKSVDEAIAACGDVPEIMVIGGGRVIEQFLPKAQKLYLTHIDAEVEGDTHFPDYEPDDWESVFSEFHDADAQNSHSYCFEILERKLGGGAPAVGGGPKMGKSKEISQDLRKRIVDLHKSGSSLGAISKRLAVPRSSVQTIVRKYKHHGTTQPSYRSGRRRVLSPRDERTLVRKVQINPRTTAKDLVKMLEETGTKVSISTVKRVLYRHNLKGHSARKKPLLQNRHKKARLRFATAHGDKDRTFWRNVLWSDETKIELFGHNDHRYVWRKKGEACKPKNTIPTVKHGGGSIMLWGCFAAGGTGALHKIDGIMDAVQYVDILKQHLKTSVRKLKLGRKWVFQHDNDPKHTSKVVAKWLKDNKVKVLEWPSQSPDLNPIENLWAELKKRVRARRPTNLTQLHQLCQEEWAKIHPNYCGKLVEGYPKRLTQVKQFKGNATKY", "values": [{"measurement": "fusion-transposase protein level (immunoblot)", "setting": "Lenti-X 293T cells; absence of TMP (DMSO control)", "value": "rapidly degraded"}, {"measurement": "fusion-transposase protein level (immunoblot)", "setting": "Lenti-X 293T cells; presence of trimethoprim 10 nM to 1000 nM", "value": "stabilized"}, {"measurement": "fusion-transposase protein (immunoblot)", "setting": "HeLa cells; absence of TMP", "value": "no residual fusion transposase protein was detectable after day 2"}, {"measurement": "fusion-transposase protein (immunoblot)", "setting": "HeLa cells; presence of TMP, days 1-3 after transfection", "value": "detected"}, {"measurement": "transposase protein (immunoblot) at 7 days post nucleofection", "setting": "[1]; 7 days post nucleofection, CD4+ and CD8+ T cells", "value": "completely free of transposase protein"}, {"measurement": "fusion-transposase protein level (immunoblot)", "setting": "[1]; TMP 1000 nM for 24 hours, CD4+ & CD8+ T cells", "value": "high amount of fusion-transposase protein"}, {"measurement": "fusion-transposase protein level (immunoblot)", "setting": "[1]; absence of TMP (Off state)", "value": "rapidly subjected to degradation; also recorded: reduced"}]}]}
